# PubChem BioAssay AID1671195 | Yale University, 2021
# Purpose: 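Regulators of LDL receptor activity judged by labelled LDL uptake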 (primary screen)
# Cells: human Huh7 hepatoma cells
# Reagents: siRNA pool against human genes, 18 nM
# Time to read-out: about 2 to 2.5 days of knockdown, then 8 h LDL uptake
# Challenge: DiI-labelled LDL at 30 µg/ml for 8 h, in lipoprotein-deficient serum medium
# Read-out: 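Fluorescent LDL signal imaged in cells, scaled to the plate median, robust z-score for each replicate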
# Direction: robust z-score: higher = more LDL uptake after knockdown
# Active means: 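Active when two or more replicates show a robust z-score above 2 or below -2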
# Shown is one part, drawn at random, of about 22,000 deposited reagents. In the full data, about 1,510 (6.9%) got an active call. 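Active includes knockdowns raising or lowering LDL uptake; positive z-scores mean more uptake, negative mean less.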 Entries without a mark were called inactive.
target gene,"robust z-score, replicate 1","robust z-score, replicate 2","robust z-score, replicate 3"
CDKN2AIP,0.0222,2.1,-0.0896
MS4A3,4.03 (active),3.76,3.94
ZNF514,-0.927,-1.31,-0.876
CDC7,-0.0286,0.733,0.258
CRYGD,-0.433,0.225,0.323
MAGEB4,1.2,0.804,0.93
METTL15,1.1,0.103,-0.599
MAEL,1.53,0.706,1.26
ABCA15P,-0.000289,-0.383,-0.561
ASRGL1,1.07,0.686,0.393
SLFN12L,-0.6,-0.708,-0.525
KRTAP5-6,-0.77,-1.77,-1.35
C2CD2L,0.495,1.22,0.953
ATXN7,1.66,0.484,-0.0251
SSBP2,0.708,0.619,0.818
LOC442532 (retired record),1.92,2.1,1.85
MRPL50,0.699,0.254,0.475
IGIP,3.9 (active),4.74,4.22
SH2D1A,-0.0214,0.72,0.277
FAM110D,-0.0702,-0.476,-0.585
C2orf76,-0.277,-0.521,0.393
LOC440941 (retired record),0.221,0.1,-0.179
TTL,-0.313,0.931,1.58
POU3F3,-0.238,-0.143,-0.0559
PCDH18,-2.24 (active),-2.19,-2.4
OR9A2,0.0129,-0.173,-0.316
NOVA1,2.43 (active),1.21,3.44
MYMK,-0.142,0.0509,0.00832
